Source: publication PMC7806630, “Molecular basis of the interaction of the human tyrosine phosphatase PTPN3 with the hepatitis B virus core protein” (Scientific Reports, 2021)
These are yes or no findings as the source states them, for the method shown. In cells and extracts the contact can be indirect. A yes stands for co-enrichment or nearness to the bait. Other partners may have been found. One block for each molecule: values may come before it.

Amino acid sequences for entries named in this document (tags omitted). Residues count along the entry.
UniProt P26045, residues 489-597: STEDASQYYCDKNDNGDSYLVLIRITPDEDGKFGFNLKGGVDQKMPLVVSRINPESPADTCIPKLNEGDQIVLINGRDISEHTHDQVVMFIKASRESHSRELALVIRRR
UniProt P55060: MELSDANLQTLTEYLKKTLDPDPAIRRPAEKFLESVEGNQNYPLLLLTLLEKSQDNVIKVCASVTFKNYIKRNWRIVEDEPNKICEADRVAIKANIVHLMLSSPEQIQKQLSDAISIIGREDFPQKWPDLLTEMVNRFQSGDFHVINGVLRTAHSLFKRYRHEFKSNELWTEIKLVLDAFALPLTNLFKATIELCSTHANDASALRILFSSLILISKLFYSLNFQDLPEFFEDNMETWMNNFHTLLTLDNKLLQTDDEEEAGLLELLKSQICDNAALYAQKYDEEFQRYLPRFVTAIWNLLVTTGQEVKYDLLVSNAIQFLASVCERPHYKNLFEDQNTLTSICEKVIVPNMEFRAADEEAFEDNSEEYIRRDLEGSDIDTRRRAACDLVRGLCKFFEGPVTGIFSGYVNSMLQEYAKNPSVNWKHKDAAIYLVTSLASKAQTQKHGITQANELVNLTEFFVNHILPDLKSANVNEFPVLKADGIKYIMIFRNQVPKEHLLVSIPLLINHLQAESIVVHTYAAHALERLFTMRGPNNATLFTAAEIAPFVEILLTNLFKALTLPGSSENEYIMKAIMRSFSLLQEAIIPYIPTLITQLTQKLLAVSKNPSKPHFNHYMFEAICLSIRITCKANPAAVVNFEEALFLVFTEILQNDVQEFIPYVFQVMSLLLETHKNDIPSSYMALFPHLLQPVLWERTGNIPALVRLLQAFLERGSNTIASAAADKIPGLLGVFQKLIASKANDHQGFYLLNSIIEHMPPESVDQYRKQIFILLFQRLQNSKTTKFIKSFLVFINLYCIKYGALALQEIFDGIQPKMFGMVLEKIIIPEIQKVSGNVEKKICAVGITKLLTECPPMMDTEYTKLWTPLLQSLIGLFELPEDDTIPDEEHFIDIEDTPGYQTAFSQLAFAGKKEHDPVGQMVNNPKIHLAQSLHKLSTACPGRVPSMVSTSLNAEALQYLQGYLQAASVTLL
UniProt P26599: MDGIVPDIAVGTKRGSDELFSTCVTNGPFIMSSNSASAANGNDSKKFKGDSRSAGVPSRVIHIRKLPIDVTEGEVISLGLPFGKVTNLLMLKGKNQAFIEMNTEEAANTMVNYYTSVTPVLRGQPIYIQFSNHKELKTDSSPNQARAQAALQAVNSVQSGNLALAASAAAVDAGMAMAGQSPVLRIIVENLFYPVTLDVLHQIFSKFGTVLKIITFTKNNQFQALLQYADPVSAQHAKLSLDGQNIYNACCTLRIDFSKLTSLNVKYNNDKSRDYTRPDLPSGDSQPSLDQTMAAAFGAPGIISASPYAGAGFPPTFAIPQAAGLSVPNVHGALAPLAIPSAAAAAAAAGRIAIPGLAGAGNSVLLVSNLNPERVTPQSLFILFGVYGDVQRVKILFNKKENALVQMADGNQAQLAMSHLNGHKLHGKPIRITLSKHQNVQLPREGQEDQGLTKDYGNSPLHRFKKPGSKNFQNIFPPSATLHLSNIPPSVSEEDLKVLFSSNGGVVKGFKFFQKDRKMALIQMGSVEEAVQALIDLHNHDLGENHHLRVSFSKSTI

Target: GST-tagged PTPN3 PDZ domain (GST-PTPN3-PDZ) (human) (UniProt P26045)
Test: affinity purification with mass spectrometry; only the target purified

binding: binds
Molecule: Exportin 2 (from UniProt P55060 1-971)

binding: binds
Molecule: PTB, the polypyrimidine tract-binding protein (from UniProt P26599 1-557)

binding: binds
B1: Podocalyxin (protein, UniProt O00592 23-558)
chain: SPSPSPSPSQNATQTTTDSSNKTAPTPASSVTIMATDTAQQSTVPTSKANEILASVKATTLGVSSDSPGTTTLAQQVSGPVNTTVARGGGSGNPTTTIESPKSTKSADTTTVATSTATAKPNTTSSQNGAEDTTNSGGKSSHSVTTDLTSTKAEHLTTPHPTSPLSPRQPTSTHPVATPTSSGHDHLMKISSSSSTVAIPGYTFTSPGMTTTLLETVFHHVSQAGLELLTSGDLPTLASQSAGITASSVISQRTQQTSSQMPASSTAPSSQETVQPTSPATALRTPTLPETMSSSPTAASTTHRYPKTPSPTVAHESNWAKCEDLETQTQSEKQLVLNLTGNTLCAGGASDEKLISLICRAVKATFNPAQDKCGIRLASVPGSQTVVVKEITIHTKLPAKDVYERLKDKWDELKEAGVSDMKLGDQGPPEEAEDRFSMPLIITIVCMASFLLLVAALYGCCHQRLSQRKDQQRLTEELQTVENGYHDNPTLEVMETSSEMQEKKVVSLNGELGDSWIVPLDNLTKDDLDEEEDTHL

binding: binds
B2: Acot8 (protein, UniProt O14734 1-319)
chain: MSSPQAPEDGQGCGDRGDPPGDLRSVLVTTVLNLEPLDEDLFRGRHYWVPAKRLFGGQIVGQALVAAAKSVSEDVHVHSLHCYFVRAGDPKLPVLYQVERTRTGSSFSVRSVKAVQHGKPIFICQASFQQAQPSPMQHQFSMPTVPPPEELLDCETLIDQYLRDPNLQKRYPLALNRIAAQEVPIEIKPVNPSPLSQLQRMEPKQMFWVRARGYIGEGDMKMHCCVAAYISDYAFLGTALLPHQWQHKVHFMVSLDHSMWFHAPFRADHWMLYECESPWAGGSRGLVHGRLWRQDGVLAVTCAQEGVIRVKPQVSESKL

binding: binds
B3: hnRNP A0 (protein, UniProt Q13151 1-305)
chain: MENSQLCKLFIGGLNVQTSESGLRGHFEAFGTLTDCVVVVNPQTKRSRCFGFVTYSNVEEADAAMAASPHAVDGNTVELKRAVSREDSARPGAHAKVKKLFVGGLKGDVAEGDLIEHFSQFGTVEKAEIIADKQSGKKRGFGFVYFQNHDAADKAAVVKFHPIQGHRVEVKKAVPKEDIYSGGGGGGSRSSRGGRGGRGRGGGRDQNGLSKGGGGGYNSYGGYGGGGGGGYNAYGGGGGGSSYGGSDYGNGFGGFGSYSQHQSSYGPMKSGGGGGGGGSSWGGRSNSGPYRGGYGGGGGYGGSSF

binding: binds
B4: Vangl1 (planar cell polarity protein 1) (protein, UniProt Q8TAA9 1-524)
chain: MDTESTYSGYSYYSSHSKKSHRQGERTRERHKSPRNKDGRGSEKSVTIQPPTGEPLLGNDSTRTEEVQDDNWGETTTAITGTSEHSISQEDIARISKDMEDSVGLDCKRYLGLTVASFLGLLVFLTPIAFILLPPILWRDELEPCGTICEGLFISMAFKLLILLIGTWALFFRKRRADMPRVFVFRALLLVLIFLFVVSYWLFYGVRILDSRDRNYQGIVQYAVSLVDALLFIHYLAIVLLELRQLQPMFTLQVVRSTDGESRFYSLGHLSIQRAALVVLENYYKDFTIYNPNLLTASKFRAAKHMAGLKVYNVDGPSNNATGQSRAMIAAAARRRDSSHNELYYEEAEHERRVKKRKARLVVAVEEAFIHIQRLQAEEQQKAPGEVMDPREAAQAIFPSMARALQKYLRITRQQNYHSMESILQHLAFCITNGMTPKAFLERYLSAGPTLQYDKDRWLSTQWRLVSDEAVTNGLRDGIVFVLKCLDFSLVVNVKKIPFIILSEEFIDPKSHKFVLRLQSETSV

binding: binds
B5: 2′,3′-Cyclic Nucleotide 3′-Phosphodiesterase (CNP) (protein, UniProt P09543 1-421)
chain: MNRGFSRKSHTFLPKIFFRKMSSSGAKDKPELQFPFLQDEDTVATLLECKTLFILRGLPGSGKSTLARVIVDKYRDGTKMVSADAYKITPGARGAFSEEYKRLDEDLAAYCRRRDIRILVLDDTNHERERLEQLFEMADQYQYQVVLVEPKTAWRLDCAQLKEKNQWQLSADDLKKLKPGLEKDFLPLYFGWFLTKKSSETLRKAGQVFLEELGNHKAFKKELRQFVPGDEPREKMDLVTYFGKRPPGVLHCTTKFCDYGKAPGAEEYAQQDVLKKSYSKAFTLTISALFVTPKTTGARVELSEQQLQLWPSDVDKLSPTDNLPRGSRAHITLGCAADVEAVQTGLDLLEILRQEKGGSRGEEVGELSRGKLYSLGNGRWMLTLAKNMEVRAIFTGYYGKGKPVPTQGSRKGGALQSCTII
